Results on one molecule are retold here after publication PMC7279049.

No constants are given. Whether binding was seen depends on the method and setting. In cells and extracts the contact can be indirect. Binding calls can cover weak binding; strength is not graded here.

For the test, the target named is EDEM1 mutant lacking the IDR (∆-EDEM1). Nature of the test: co-IP; HEK293T overexpressing empty vector, EDEM1 or ∆-EDEM1, with or without 30 µM kifunensine overnight; CHAPS buffer; immunoprecipitation with antibodies for EDEM1, SEL1L, OS-9 or XTP3-B, Western blot for EDEM1, SEL1L, OS-9 and XTP3-B (Figure 3B-E; control siRNA samples of Figure A1J). (A western blot detects proteins with antibodies after separation by electrophoresis.)

B1: XTP3-B (ERLEC1) (protein, UniProt Q96DZ1 34-483)
chain: LPQLSDDIPFRVNWPGTEFSLPTTGVLYKEDNYVIMTTAHKEKYKCILPLVTSGDEEEEKDYKGPNPRELLEPLFKQSSCSYRIESYWTYEVCHGKHIRQYHEEKETGQKINIHEYYLGNMLAKNLLFEKEREAEEKEKSNEIPTKNIEGQMTPYYPVGMGNGTPCSLKQNRPRSSTVMYICHPESKHEILSVAEVTTCEYEVVILTPLLCSHPKYRFRASPVNDIFCQSLPGSPFKPLTLRQLEQQEEILRVPFRRNKEEDLQSTKEERFPAIHKSIAIGSQPVLTVGTTHISKLTDDQLIKEFLSGSYCFRGGVGWWKYEFCYGKHVHQYHEDKDSGKTSVVVGTWNQEEHIEWAKKNTARAYHLQDDGTQTVRMVSHFYGNGDICDITDKPRQVTVKLKCKESDSPHAVTVYMLEPHSCQYILGVESPVICKILDTADENGLLSLPN
Regarding B1, the binding entry was “binds”.
